Reference: patent publication US9320723B2, “Methods of treating thyroid eye disease” (University of Rochester, priority 2010, dated 2016)
At least one structure is not confirmed: it was looked up by name or label, or the drawing left a doubt.

Tests used:
[1] = system: human orbital fibroblasts; experiment: HA ELISA of culture medium of orbital fibroblasts treated with prostaglandins or drugs; assay type: cell-based; details: 5 μM forskolin alone, 18 hours
From the text: Orbital fibroblasts: Primary orbital fibroblasts were isolated from TED patients undergoing orbital decompression surgery. The protocols for orbital biopsy and blood sample, described below, were approved by the Internal Review Board and informed, written consent was obtained from all patients. […] Fibroblasts were characterized by their adherent morphology, expression of vimentin and types I and III collagen and absence of CD45, factor VIII or cytokeratin. Fibroblasts were used at the earliest passage possible (between passages 4 to 10). Human T cells: Lymphocytes were isolated from 60 ml of peripheral blood obtained during orbital decompression surgery. Whole blood was separated over a Ficoll-Paque Plus Gradient (Amersham Biosciences, Piscataway, N.J.) to obtain peripheral blood mononuclear cells. […] Cellular purity was assessed using an anti-CD3-PE antibody (BD Biosciences, San Jose, Calif.) and analyzed on a FACSCalibur flow cytometer (BD Biosciences).
Aliquots of culture medium were removed at indicated time points, centrifuged (5 min, 8,000×g at 4° C.) and HA levels quantified by enzyme-linked immunosorbent assay (ELISA) according to the manufacturer's protocol (R&D Systems). […] After the last wash, the chromogenic substrate was added and HA levels were determined using a Varioskan Flash plate reader (Thermo Fisher Scientific, Milford, Mass.).

[2] = system: human orbital fibroblasts; experiment: Quantitation of secreted, pericellular and intracellular HA by ELISA, TGF-β1 treatment; assay type: cell-based; details: for HA synthesis, treatment alone: Pio or Rosi without TGF-β1; for induction of secreted HA and pericellular HA by TGF-β1: varying concentrations, 2 ng/ml TGF-β1, 24 hours
Description: Confluent monolayers of orbital fibroblasts were serum starved in 0.5% FBS RPMI-1640 medium for three days and pretreated with different concentrations of Pio or Rosi for 1 hour and then treated with or without 2 ng/ml TGF-β1 for 24 hours. After treatments, an aliquot of culture medium (secreted HA) was removed and centrifuged at 8,000×g at 4° C. for 5 minutes and the supernatant was saved for later analysis. The cells were washed twice with PBS and treated with 0.25% trypsin-EDTA solution (GIBCO, Invitrogen) at 37° C. for 5 minutes, the reaction was stopped by addition of culture medium and cell number was determined using a hemocytometer. The cells were then centrifuged and the supernatant was collected and incubated at 100° C. for 10 minutes to inactivate trypsin activity. This supernatant was saved for pericellular HA detection. The cell pellet was washed with PBS once and digested with 120 μg/ml proteinase K in 0.1% SDS/0.1 M Tris-HCl (pH 7.6) at 37° C. for 1 hour, and proteinase K was inactivated by incubation at 100° C. for 10 min. The cell lysate was centrifuged and supernatant analyzed for intracellular HA.
The amount of HA in each extract (secreted HA, pericellular HA and intracellular HA) was measured by ELISA based on the specific interaction of HA with HA binding protein (HABP). The HA detection kit was purchased from R&D system (Minneapolis, Minn.). Briefly, diluted samples were incubated in HABP-coated microwells, allowing HA present in samples to react with the immobilized HABP. After extensive washing, biotinylated HABP was added to the microwells to form complexes with bound HA. Following another round of washing, streptavidin conjugated horseradish peroxidase was added. After a brief incubation period and washing, chromogenic substrate was added and HA levels were determined using a Varioskan Flash plate reader (Thermo Fisher Scientific, Milford, Mass.). A fraction of the samples were pretreated with Streptomyces hyaluronidase (2 U/ml at 37° C. for 2 hour) before subjected to the ELISA assay as a negative control. Furthermore, an additional 50 ng/ml (final concentration) of free soluble HA was added to a fraction of the cell lysate samples to confirm that there are no inhibitory factors present and that the assays show the expected additivity when a known amount of exogenous HA is included.

[3] = system: human orbital fibroblasts; experiment: qRT-PCR of HAS mRNA after TGF-β1 with or without Pio or Rosi; assay type: cell-based; details: different concentrations, 6 hours
From the text: RNA was isolated from orbital fibroblast strains using the RNeasy Mini kit according to the manufacturer's protocol (Qiagen, Valencia, Calif.) and reverse transcripted to cDNA using iScript cDNA synthesis kit (Bio-Rad, Hercules, Calif.). Primers for human HAS1, 2, 3 and 7S as well as qRT-PCR method to detect relative abundance of mRNA are identified supra. Primers for human PPARγ1 (NM138711) and PPARγ 2 (NM015869) mRNA were 5′-AAAGAAGCCGA-CACTAAACC-3′ (SEQ ID NO:3) (sense), 5′-CTTCCATTACGG-AGAGATCC-3′ (SEQ ID NO:4) (antisense) and, 5′-GCGATTC-CTTCACTGATAC-3′ (SEQ ID NO:5) (sense), 5′-CTTCCATT-ACGGAGAGATCC-3′ (SEQ ID NO:6) (antisense), respectively.

[4] = system: human peripheral blood T cells adhering to orbital fibroblasts; experiment: T cell adhesion assay; assay type: cell-based; details: fibroblasts treated with different concentrations of Pio or Rosi with TGF-β1, 24 hours
[5] = system: orbital fibroblasts; experiment: TGF-β signaling pathways in orbital fibroblasts; assay type: cell-based, human; details: for phosphorylation and nuclear translocation of Smad2 and 3 induced by TGF-β: co-treatment with Pio or Rosi
[6] = system: orbital fibroblasts, preadipocytes and thyrocytes; details: Antonelli et al. 2006, 2009; cited from earlier work

SMILES	HA production [1]	HA synthesis, treatment alone [2]	induction of secreted HA and pericellular HA by TGF-β1 [2]	TGF-β1-induced HAS1 mRNA expression [3]	TGF-β-induced HAS2 mRNA expression [3]	TGF-β1 induced fibroblast-T cell adhesion [4]	TGF-β-activated MAPK signaling pathway, phosphorylation of p38 and p42/44 [5]	phosphorylation and nuclear translocation of Smad2 and 3 induced by TGF-β [5]	IFNγ and TNFα-induced CXCL9, CXCL10 and CXCL11 secretion [6]	intracellular HA levels ([2]; 20 μM Rosi, both strains)
C=C[C@@]1(C)CC(=O)[C@]2(O)[C@@]3(C)[C@@H](O)CCC(C)(C)[C@@H]3[C@H](O)[C@H](OC(C)=O)[C@@]2(C)O1 [Forskolin]	significantly increased HA production compared to vehicle-treated fibroblasts									
CCc1ccc(CCOc2ccc(CC3SC(=O)NC3=O)cc2)nc1 (stereo not drawn) [Pio, pioglitazone]		has no significant effect on HA synthesis	substantially diminished the induction of secreted HA and pericellular HA by TGF-β1 in a dose-response manner	significantly inhibited TGF-β1-induced HAS1 mRNA expression in a dose dependent manner	significantly inhibited TGF-β-induced HAS2 mRNA expression in a dose-dependent manner	significantly reduced ability to adhere to T cells compared to fibroblasts treated with TGF-β1 only	did not inhibit the TGF-β-activated mitogen-activated protein kinase (MAPK) signaling pathway or the phosphorylation of p38 and p42/44	unaffected	dose-dependent inhibition	
CN(CCOc1ccc(CC2SC(=O)NC2=O)cc1)c1ccccn1 (stereo not drawn) [Rosi, rosiglitazone]		has no significant effect on HA synthesis	substantially diminished the induction of secreted HA and pericellular HA by TGF-β1 in a dose-response manner	inhibited HAS1 mRNA expression similarly at both doses used	significantly inhibited TGF-β-induced HAS2 mRNA expression in a dose-dependent manner	significantly reduced ability to adhere to T cells compared to fibroblasts treated with TGF-β1 only	did not inhibit the TGF-β-activated mitogen-activated protein kinase (MAPK) signaling pathway or the phosphorylation of p38 and p42/44	unaffected	dose-dependent inhibition	significantly reduced intracellular HA levels in both strains
